Patent US20040116369A1, “Interferon regulatory factor-1/human estrogen receptor fusion protein and its use for treating carcinomas” (priority 2001, published 2004)
At least one compound was matched to its structure with a doubt left.

Test system: AFP
Assay: AFP specific CTL 51Cr release assay after rVV-mAFP stimulation
Type: in vivo, C57L/J mice
Conditions: E2 treated/HepaIRF-1hER challenged mice

Structure (SMILES): C[C@]12CC[C@@H]3c4ccc(O)cc4CC[C@H]3[C@@H]1CC[C@@H]2O [E2, β-estradiol]
- CTL activity against Hepa1-6 HCCs endogenously expressing AFP: Intermediate CTL activity
